Experimental data as given in patent publication US20250376501A1.
Results are given in words; binding and its absence hold for the method and conditions named. Some binding calls cover weakened binding; strength is not graded here. Where a sequence is shown, tags or fusion partners need not be part of it.

Chains of the proteins cited; added tags and fusions are not shown. Lines headed by an entry give the natural chain unless they say otherwise; changes in a name come on top.
UniProt Q969D9: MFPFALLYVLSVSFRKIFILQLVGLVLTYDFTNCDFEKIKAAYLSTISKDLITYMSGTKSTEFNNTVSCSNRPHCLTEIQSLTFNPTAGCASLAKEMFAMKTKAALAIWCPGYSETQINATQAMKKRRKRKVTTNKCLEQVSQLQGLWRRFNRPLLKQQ

Target: hTSLP-mFc recombinant protein (ACROBiosystems, Cat. No. TSP-H5255) (human) (UniProt Q969D9)
Test: ELISA, hTSLP-mFc coated at 50 ng/well, anti-His HRP, OD450

B1: TSLPR-his (Novoprotein Scientific Inc., Cat. No. CW75) (receptor, UniProt Q9HC73 23-231, looked up, not shown: small tags and cut ends)
chain: QGGAAEGVQIQIIYFNLETVQVTWNASKYSRTNLTFHYRFNGDEAYDQCTNYLLQEGHTSGCLLDAEQRDDILYFSIRNGTHPVFTASRWMVYYLKPSSPKHVRFSWHQDAVTVTCSDLSYGDLLYEVQYRSPFDTEWQSKQENTCNVTIEGLDAEKCYSFWVRVKAMEDVYGPDTYPSDWSEVTCWQRGEIRDACAETPTPPKPKLSK
Q: Which binding does the source give for B1 here?
A: binds
